Results from patent US12692291B2 (Boehringer Ingelheim International GmbH, priority 2020, dated 2026).

Test: general procedure: Fmoc solid-phase peptide synthesis; 1,4-diaminobutane trityl resin
Conditions: whole synthesis, scale 0.4 mmol, side-chain lactam ring, sequence written open

## Ac-Nle-Glu-His-D-Phe(4-F)-Arg-Trp-NH(CH2)4NH2
  isolated mass: 97.2 mg
  isolated yield: 19.8%
